US7807783 (REGENTS OF THE UNIVERSITY OF MICHIGAN, dated 2010)

Sequences of proteins named here, by UniProt entry; tags and fusion partners are left off. A change or cut given only in a name is not applied to a line headed by its entry.
UniProt P25445: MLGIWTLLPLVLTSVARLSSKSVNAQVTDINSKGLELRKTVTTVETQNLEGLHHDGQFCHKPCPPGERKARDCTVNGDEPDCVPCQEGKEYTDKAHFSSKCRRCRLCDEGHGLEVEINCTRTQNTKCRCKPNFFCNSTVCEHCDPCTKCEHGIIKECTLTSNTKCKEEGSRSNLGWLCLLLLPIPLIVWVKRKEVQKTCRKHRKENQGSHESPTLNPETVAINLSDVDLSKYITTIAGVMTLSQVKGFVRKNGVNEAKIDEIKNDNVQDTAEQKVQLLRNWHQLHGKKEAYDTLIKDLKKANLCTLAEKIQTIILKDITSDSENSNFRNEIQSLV

Experiments:
[1] = target: FLAG-epitope tagged Fas (FLAG-Fas) (UniProt P25445); experiment: co-immunoprecipitation from cotransfected 293T cells
[2] = target: FLAG-epitope tagged Fas (FLAG-Fas) (UniProt P25445); experiment: co-immunoprecipitation with anti-HA from cotransfected 293T cells
[3] = target: FLAG-epitope tagged Fas (FLAG-Fas) (UniProt P25445); experiment: double immunoprecipitation, anti-HA then anti-FLAG, from cotransfected 293T cells

binding [1]: binds | binding [2]: binds | binding [3]: binds
B1: HA-epitope tagged FADD (HA-FADD) (other)
chain: YPYDVPDYAMDPFLVLLHSVSSSLSSSELTELKFLCLGRVGKRKLERVQSGLDLFSMLLEQNDLEPGHTELLRELLASLRRHDLLRRVDDFEAGAAAGAAPGEEDLCAAFNVICDNVGKDWRRLARQLKVSDTKIDSIEDRYPRNLTERVRESLRIWKNTEKENATVAHLVGALRSCQMNLVADLVQEVQQARDLQNRSGAMSPMSWNSDASTSEAS
modifications: 35S-methionine/cysteine metabolic or in vitro translation label
notes: also called in vitro translated FADD; 35S-labeled FADD

Results are given in words; binding and its absence hold for the method and conditions named. Binding calls can cover weak binding; strength is not graded here. For part of these data: In cells and extracts the contact can be indirect.
